Laboratory results from PMC9824695, “A Novel Multi-Target Mu/Delta Opioid Receptor Agonist, HAGD, Produced Potent Peripheral Antinociception with Limited Side Effects in Mice and Minimal Impact on Human Sperm Motility In Vitro” (Molecules, 2023).

The chains behind the UniProt entries cited, without tags or fusion partners. Where a name states a change or a piece, a line headed by the entry shows the natural chain unless it says otherwise.
UniProt P41145: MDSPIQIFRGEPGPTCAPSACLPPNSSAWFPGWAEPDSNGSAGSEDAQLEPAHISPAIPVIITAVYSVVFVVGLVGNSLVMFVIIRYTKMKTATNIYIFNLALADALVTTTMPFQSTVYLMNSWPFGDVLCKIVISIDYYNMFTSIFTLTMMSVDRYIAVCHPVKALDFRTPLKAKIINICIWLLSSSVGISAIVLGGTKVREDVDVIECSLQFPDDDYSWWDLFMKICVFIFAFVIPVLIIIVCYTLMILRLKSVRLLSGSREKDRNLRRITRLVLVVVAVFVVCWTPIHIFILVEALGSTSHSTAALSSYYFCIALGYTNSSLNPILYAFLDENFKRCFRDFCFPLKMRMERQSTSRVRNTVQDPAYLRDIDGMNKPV

Molecular target: T1, human kappa opioid receptor (CHOhKOP) (Homo sapiens, UniProt P41145)
T1 construct: host or cells: CHO cells (CHOhKOP)
Experiment: Calcium mobilization assay, CHOhKOP cells
Format: cell-based

C[C@@H](NC(=O)[C@@H](N)Cc1ccc(O)cc1)C(=O)NCC(=O)N[C@@H](Cc1ccccc1)C(N)=O [HAGD, H-Tyr-D-AIa-GIy-Phe-NH2]
Emax: 2.95 ± 0.92%
